Results deposited as PubChem BioAssay AID686937 (Drosophila RNAi Screening Center, 2013)
The deposit covers about 23,000 reagents; this is a random part of those with a known target gene and a result. 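Reduced-secretion tags in replicate 1 do not always agree with the z-scores; no criterion for assigning the tags was given.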 A plus sign joins genes that one reagent is predicted to hit. Not stated in the record: the amount of reagent.

- Aim: 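Genes whose loss weakens secretory pathway function in fly cells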 (primary screen)
- System: Drosophila S2 cells expressing secreted horseradish peroxidase
- Reagents: long dsRNA against Drosophila genes
- Timing: about 5.5 days (5 days dsRNA, then 12 h reporter induction)
- Conditions: reporter expression induced after 5 days of dsRNA, read 12 h later; inducer not stated
- Detection: 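After 5 days of dsRNA and 12 h of reporter induction, medium peroxidase read by chemiluminescence and scored as per-plate z-score; higher values mean more reporter released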
- Reading the numbers: z-score: higher = more reporter secreted into medium

| Target gene | amplicon | z-score, replicate 1 | z-score, replicate 2 | z-score, replicate 3 | z-score, replicate 4 | phenotype, replicate 1 |
| --- | --- | --- | --- | --- | --- | --- |
| CG31806 (GeneID 261615) | DRSC02787 | -0.31 | -0.08 | – | – | – |
| Rtc1 (GeneID 32338) | DRSC20285 | 0.2 | -0.56 | – | – | – |
| Fatp (retired record) (GeneID 44227) | DRSC03054 | 0.23 | 0.42 | – | – | – |
| CG15083 (GeneID 37175) | DRSC06514 | 0.19 | 0.26 | – | – | – |
| Grl36b (GeneID 318940) | DRSC01627 | 0.34 | 0.2 | – | – | – |
| nw (GeneID 3772015) | DRSC06451 | 0.36 | 0.1 | – | – | – |
| nw (GeneID 3772015) | DRSC06749 | 0.4 | 0.57 | – | – | – |
| nw (GeneID 3772015) | DRSC06896 | 0.08 | 0.27 | – | – | – |
| D19A (GeneID 38718) | DRSC11133 | -1.48 | -0.6 | – | – | – |
| Rhau (GeneID 35339) | DRSC03200 | 0.21 | 0.32 | – | – | – |
| AsnRS-m (GeneID 36909) | DRSC07010 | 0.08 | 0.28 | – | – | – |
| CG4631 (GeneID 34988) | DRSC02766 | 0.12 | 0.02 | 0.44 | 0.11 | – |
| CG4631 (GeneID 34988) | DRSC22194 | 0.51 | 0.19 | – | – | – |
| Cngl (GeneID 32468) | DRSC19089 | -1.39 | 0.51 | – | – | – |
| Cngl (GeneID 32468) | DRSC19795 | -0.04 | 0.11 | – | – | – |
| Cngl (GeneID 32468) | DRSC20318 | -0.07 | -0.51 | – | – | – |
| Wdr82 (GeneID 34153) | DRSC02595 | 0.24 | 0.3 | 0.29 | 0.13 | – |
| Wdr82 (GeneID 34153) | DRSC21723 | 1 | 1.31 | – | – | – |
| CG13287 (GeneID 38660) | DRSC09961 | 0.68 | 0.55 | – | – | – |
| CheB93b (GeneID 318736) | DRSC21762 | 0.58 | 0.07 | – | – | – |
| CG13623 (GeneID 42926) | DRSC14625 | 0.32 | -0.25 | – | – | – |
| CG12814 (GeneID 41246) | DRSC14552 | -7.03 | 0.22 | – | – | reduced secretion |
| CG12814 (GeneID 41246) | DRSC14553 | 0.17 | -0.25 | – | – | – |
| Polr3F (GeneID 42619) | DRSC15785 | 0.1 | -1.09 | – | – | – |
| CG30103 (GeneID 36969) | DRSC06894 | 0.31 | 0.14 | – | – | – |
| Saysd1 (GeneID 43029) | DRSC14664 | 0.31 | 0.26 | – | – | – |
| CG12347 (GeneID 42152) | DRSC14502 | 0.34 | 0.3 | – | – | – |
| Kaz1-ORFB (GeneID 3772691) | DRSC08669 | 0.32 | 0.31 | – | – | – |
| ETH + asRNA:CR43257 | DRSC04612 | 0.19 | 0.19 | – | – | – |
| Fit2 (GeneID 39907) | DRSC10908 | 0.24 | 0.33 | – | – | – |
| danr (GeneID 43020) | DRSC14651 | 0.27 | 0.44 | – | – | – |
| Art3 (GeneID 41837) | DRSC16065 | 0.34 | 0.41 | – | – | – |
| CG9391 (GeneID 40346) | DRSC11858 | 0.11 | 0.37 | – | – | – |

Part of the list above, set out differently.
CG13287 (GeneID 38660) [DRSC09961]: z-score, replicate 1 = 0.68; z-score, replicate 2 = 0.55
CheB93b (GeneID 318736) [DRSC21762]: z-score, replicate 1 = 0.58; z-score, replicate 2 = 0.07
CG13623 (GeneID 42926) [DRSC14625]: z-score, replicate 1 = 0.32; z-score, replicate 2 = -0.25
CG12814 (GeneID 41246) [DRSC14552]: z-score, replicate 1 = -7.03; z-score, replicate 2 = 0.22; phenotype, replicate 1 = reduced secretion
CG12814 (GeneID 41246) [DRSC14553]: z-score, replicate 1 = 0.17; z-score, replicate 2 = -0.25
